Reference: PubChem BioAssay AID330 (DTP/NCI, 2004)
The list is a part of this screen's results and no random one: it is rich in T/C values a quarter to a half above the control, in often repeated tests (any T/C) and in doses without a T/C. Other doses and runs of a compound stand elsewhere. T/C: endpoint of the treated group in % of that of the vehicle group. Some doses have a count of surviving animals in place of a T/C: the source holds a T/C of zero for them, seemingly a mark for toxic or unscored doses. Some survivor counts are full or nearly so, which does not show that the dose was tolerated: the source hardly ever lists a survival T/C far under the control, and the zero likely stands for such cases as well. Survivors were counted at the toxicity check, usually on the fifth day, unless a day is given; later deaths do not show. Schedules are NCI's codes, read here as Q, the interval in days (D) or hours (H), X, the number of doses. Some doses were run more than once; the values are given in rising order. For survival time, the PubChem record calls one and a half times the control and up active, and a quarter to a half above the control has no call in these data; cut-offs in other NCI protocols can differ. Some T/C values carry the count of animals alive at the toxicity check (mostly the fifth day); without a count, all were alive then.

Test system: P388 leukemia ip, CD2F1 mice, survival T/C
Assay: NCI In Vivo Anticancer Drug Screen. Data for tumor model P388 Leukemia (intraperitoneal) in CD2F1 (CDF1) mice
Settings: T/C endpoint: median survival time, higher T/C = longer survival
[1] = dose: 240.0 mg/kg/injection, schedule: Q01DX005 (ip), vehicle: saline with Tween-80
[2] = dose: 100.0 mg/kg/injection, schedule: Q01DX005 (ip), vehicle: Klucel (hydroxypropylcellulose) (HPC)
[3] = dose: 200.0 mg/kg/injection, schedule: Q01DX005 (ip), vehicle: Klucel (hydroxypropylcellulose) (HPC)
[4] = dose: 200.0 mg/kg/injection, schedule: Q01DX009 (ip), vehicle: water
[5] = dose: 200.0 mg/kg/injection, schedule: Q04DX003 (ip), vehicle: saline with Tween-80
[6] = dose: 100.0 mg/kg/injection, schedule: Q01DX009 (ip), vehicle: saline with Tween-80
[7] = dose: 200.0 mg/kg/injection, schedule: Q01DX009 (ip), vehicle: saline with Tween-80
[8] = dose: 400.0 mg/kg/injection, schedule: Q01DX009 (ip), vehicle: saline with Tween-80
[9] = dose: 240.0 mg/kg/injection, schedule: Q01DX005 (ip), vehicle: Klucel (hydroxypropylcellulose) (HPC)
[10] = dose: 200.0 mg/kg/injection, schedule: Q01DX009 (ip), vehicle: Klucel (hydroxypropylcellulose) (HPC)
[11] = dose: 25.0 mg/kg/injection, schedule: Q01DX005 (ip), vehicle: Klucel (hydroxypropylcellulose) (HPC)

ClCCN(CCCl)c1ccc(N=Nc2cccc(Cl)c2Cl)cc1
T/C (dose: 75.0 mg/kg/injection, schedule: Q04DX003 (ip), vehicle: Klucel (hydroxypropylcellulose) (HPC)): 125 % of control

C/C(=N\NC(=S)N(C)C)c1ncccn1
survivor count (dose: 100.0 mg/kg/injection, schedule: Q04DX003 (ip), vehicle: Klucel (hydroxypropylcellulose) (HPC)): 1 of 6 | survivor count (dose: 200.0 mg/kg/injection, schedule: Q04DX003 (ip), vehicle: Klucel (hydroxypropylcellulose) (HPC)): 0 of 6 | survivor count (dose: 400.0 mg/kg/injection, schedule: Q04DX003 (ip), vehicle: Klucel (hydroxypropylcellulose) (HPC)): 0 of 6

COC(=O)CCC(=O)C(C#N)c1ccc(Cl)c(Cl)c1 (centres undefined)
survivor count [1]: 5 of 6

CCN(CC)c1ccc(C(=N)c2ccc(N(C)C)cc2)cc1
survivor count [2]: 0 of 5 | survivor count [3]: 0 of 5

CCCCCC(CN(C)C)C(=O)CC(SCC)c1ccccc1 (centres undefined)
survivor count (dose: 50.0 mg/kg/injection, schedule: Q01DX009 (ip), vehicle: water): 3 of 6 | survivor count (dose: 100.0 mg/kg/injection, schedule: Q01DX009 (ip), vehicle: water): 0 of 6 | survivor count [4]: 0 of 6

Cc1nc2c([N+](=O)[O-])c(Nc3ccccc3)c([N+](=O)[O-])cc2[nH]1
survivor count [5]: 0 of 6 | survivor count (dose: 400.0 mg/kg/injection, schedule: Q04DX003 (ip), vehicle: saline with Tween-80): 0 of 6

c1cnc2ncncc2n1
T/C [6]: 129 % of control | T/C [7]: 138 % of control [5 of 6 alive] | survivor count [8]: 0 of 6

CC(=Nc1ccc(Cl)cc1N)c1c(O)cc(C)oc1=O
survivor count [9]: 3 of 6

CCOC(=O)/C=C/C(=O)NNS(=O)(=O)CCC(N)C(=O)O (centres undefined)
survivor count [4]: 0 of 6

CCN(CC)CCC[Si]1(C)c2ccccc2CCc2ccccc21
survivor count (dose: 100.0 mg/kg/injection, schedule: Q04DX003 (ip), vehicle: saline): 0 of 6 | survivor count (dose: 200.0 mg/kg/injection, schedule: Q04DX003 (ip), vehicle: saline): 0 of 6 | survivor count (dose: 400.0 mg/kg/injection, schedule: Q04DX003 (ip), vehicle: saline): 0 of 6

CN=C(N)N/N=C(\C)c1ccc(/C(C)=N/NC(N)=NC)cc1
survivor count (dose: 50.0 mg/kg/injection, schedule: Q04DX002 (ip), vehicle: saline with Tween-80): 0 of 6 | survivor count (dose: 100.0 mg/kg/injection, schedule: Q04DX002 (ip), vehicle: saline with Tween-80): 0 of 6

NC(=O)NC(=O)CCl
survivor count (dose: 25.0 mg/kg/injection, schedule: Q01DX009 (ip), vehicle: Klucel (hydroxypropylcellulose) (HPC)): 6 of 6 | T/C (dose: 100.0 mg/kg/injection, schedule: Q01DX009 (ip), vehicle: Klucel (hydroxypropylcellulose) (HPC)): 99, 110 [5 of 6 alive], 120, 122 % of control | T/C [10]: 102, 115 [4 of 6 alive], 126 % of control | survivor count [10]: 3 of 6 | survivor count (dose: 400.0 mg/kg/injection, schedule: Q01DX009 (ip), vehicle: Klucel (hydroxypropylcellulose) (HPC)): 0 of 6

Cc1cc(=O)n2c3c(c4c(cc13)c(CBr)cc(=O)n4C)OC2
survivor count (dose: 50.0 mg/kg/injection, schedule: Q01DX001 (ip), vehicle: Klucel (hydroxypropylcellulose) (HPC)): 5 of 6 | survivor count (dose: 200.0 mg/kg/injection, schedule: Q01DX001 (ip), vehicle: Klucel (hydroxypropylcellulose) (HPC)): 0 of 6 | survivor count (dose: 400.0 mg/kg/injection, schedule: Q01DX001 (ip), vehicle: Klucel (hydroxypropylcellulose) (HPC)): 0 of 6

COc1cc2cc3cc(-c4ccc(Cl)cc4)c(N4CCOCC4)nc3nc2cc1OC
survivor count (dose: 60.0 mg/kg/injection, schedule: Q01DX005 (ip), vehicle: saline with Tween-80): 4 of 6 and 6 of 6

OCc1cnccc1Cl
survivor count (dose: 240.0 mg/kg/injection, schedule: Q01DX005 (ip), vehicle: saline): 1 of 6

CCCCCN(CCC)CCCCCCCCCN1CCCc2cc(OC)ccc21
survivor count (dose: 200.0 mg/kg/injection, schedule: Q01DX005 (ip), vehicle: saline + Tween-80 + alcohol): 3 of 5

CCCCCCCCCCCCCCCCCC[N+]1(CCCC)CCOCC1
survivor count [6]: 5 of 6 | survivor count [7]: 4 of 6

CC(C)Sc1nc(NC(=O)N(CCCl)N=O)cc(=O)[nH]1
T/C [11]: 148 % of control | survivor count [2]: 6 of 6 | survivor count [3]: 5 of 6

COc1cccc2c1C(=O)c1c(O)c3c(c(O)c1C2=O)C[C@@](O)(C(=O)CO)C[C@@H]3OC1CC(OC(C)=O)C(OC(C)=O)C(C)O1 (some centres undefined)
T/C (dose: 12.5 mg/kg/injection, schedule: Q04DX003 (ip), vehicle: distilled water + Tween-80): 137 % of control | T/C (dose: 100.0 mg/kg/injection, schedule: Q04DX003 (ip), vehicle: distilled water + Tween-80): 125 % of control

C=[CH][Sn][CH2]CCC
survivor count (dose: 50.0 mg/kg/injection, schedule: Q01DX009 (ip), vehicle: Klucel (hydroxypropylcellulose) (HPC)): 3 of 5 | survivor count [10]: 0 of 6

N#CN=[N+]([O-])c1ccccc1Cl
survivor count (dose: 50.0 mg/kg/injection, schedule: Q04DX003 (ip), vehicle: Klucel (hydroxypropylcellulose) (HPC)): 4 of 6

CCC(=N\N=C(N)N)/C(C)=N\N=C(N)N
survivor count (dose: 200.0 mg/kg/injection, schedule: Q01DX005 (ip), vehicle: saline with Tween-80): 0 of 6

[Cl][Eu]([Cl])[Cl]
survivor count (dose: 100.0 mg/kg/injection, schedule: Q01DX009 (ip), vehicle: saline): 6 of 6 | survivor count (dose: 200.0 mg/kg/injection, schedule: Q01DX009 (ip), vehicle: saline): 6 of 6 | survivor count (dose: 400.0 mg/kg/injection, schedule: Q01DX009 (ip), vehicle: saline): 1 of 6

CC1CCC(C(C)C)C(NC(=O)c2cc[n+](C)cc2)C1 (centres undefined)
survivor count [3]: 0 of 6

CCCCCCCCCC(C)(O)C#CC(C)(O)CCCCCCCCC (centres undefined)
survivor count (dose: 100.0 mg/kg/injection, schedule: Q04DX003 (ip), vehicle: saline with Tween-80): 4 of 6 | survivor count [5]: 6 of 6 | survivor count [8]: 4 of 6

Cc1csc2nc(-c3ccco3)nn12
survivor count [9]: 0 of 6

O=C(NCc1ccccc1)N1CCN(c2ccccc2)C1=O
T/C [6]: 125 % of control | survivor count [6]: 6 of 6

CC(C)NC(=O)OCc1c(COC(=O)NC(C)C)c(-c2ccc(Cl)cc2)n2c1CCC2
T/C (dose: 25.0 mg/kg/injection, schedule: Q01DX005 (ip), vehicle: distilled water + Tween-80): 136 % of control | survivor count (dose: 100.0 mg/kg/injection, schedule: Q01DX005 (ip), vehicle: distilled water + Tween-80): 6 of 6 | survivor count (dose: 200.0 mg/kg/injection, schedule: Q01DX005 (ip), vehicle: distilled water + Tween-80): 5 of 6

O=S(=O)(CCCCl)SCCCCl
survivor count (dose: 120.0 mg/kg/injection, schedule: Q01DX005 (ip), vehicle: saline with Tween-80): 0 of 6 | survivor count [1]: 0 of 6

Nc1ncnc2[nH]c(=S)[nH]c12
survivor count (dose: 12.5 mg/kg/injection, schedule: Q01DX005 (ip), vehicle: Klucel (hydroxypropylcellulose) (HPC)): 4 of 5 | survivor count [11]: 0 of 5 | survivor count (dose: 50.0 mg/kg/injection, schedule: Q01DX005 (ip), vehicle: Klucel (hydroxypropylcellulose) (HPC)): 0 of 5 | survivor count [2]: 0 of 5 | survivor count [3]: 0 of 5

CCOC(=O)/C=C/C(=O)NN
survivor count (dose: 12.5 mg/kg/injection, schedule: Q01DX009 (ip), vehicle: water): 6 of 6 | survivor count (dose: 25.0 mg/kg/injection, schedule: Q01DX009 (ip), vehicle: water): 6 of 6 | survivor count (dose: 400.0 mg/kg/injection, schedule: Q01DX009 (ip), vehicle: water): 4 of 6

CS(C)(O)NC(N)=O
T/C (dose: 50.0 mg/kg/injection, schedule: Q01DX005 (ip), vehicle: other): 130 % of control | T/C (dose: 200.0 mg/kg/injection, schedule: Q01DX005 (ip), vehicle: other): 128 % of control
